Square brackets hold non-standard residues; d marks the D form. Peptide text beside a SMILES is read from it. * marks the point of attachment. Pentanoyl(5-NH-cholesteryl) = CC(C)CCC[C@@H](C)[C@H]1CC[C@H]2[C@@H]3CC=C4C[C@@H](NCCCCC(=O)*)CC[C@]4(C)[C@H]3CC[C@]12C; X1 = O=C(O)c1c(Cl)cc(C(=O)*)c(Cl)c1-c1c2cc(Cl)c(=O)c(Cl)c-2oc2c(Cl)c(O)c(Cl)cc12; Ahx = NCCCCCC(=O)O
Experiments:
[1] = general procedure: Fmoc solid-phase peptide synthesis; Rink amide Novagel; HBTU/HOBt/DIEA; conditions: whole synthesis
[2] = test system: CHO cells; experiment: Colocalization of fluorescent compounds and endosomal marker proteins by confocal microscopy; format: cell-based, Chinese hamster; conditions: for colocalization of red fluorescent Compound 2 and green fluorescent Compound 3: Compound 2 (2 μM) and Compound 3 (5 μM) 12 h, conditions that minimally disrupt endosomes
[3] = general procedure: Fmoc solid-phase peptide synthesis; Rink amide Novagel resin (0.62 mmol/g); HBTU/HOBt/DIEA; conditions: whole synthesis

Compound “N-(6-{[6-({N-{5-(3β-Cholest-5-en-3-ylammonio)pentanoyl}-5-oxidanidyl-5-oxidanylidene-L-norvalyl-N^6-[4-carboxy-2,5-dichloro-3-(2,4,5,7-tetrachloro-6-hydroxy-3-oxo-3H-xanthen-9-yl)benzoyl]-L-lysyl}amino)hexanoyl]amino}hexanoyl)-L-seryl-L-seryl-L-alanyl-L-tryptophyl-L-tryptophyl-L-seryl-L-tyrosyl-L-tryptophyl-L-prolyl-L-prolyl-L-valyl-L-alaninamide” has an isolated mass ([1]; scale 0.038 mmol) of 12 mg and an isolated yield ([1]; scale 0.038 mmol) of 13.6%.
Compound “N-Acetyl-L-seryl-L-seryl-L-alanyl-L-tryptophyl-L-tryptophyl-L-seryl-L-tyrosyl-L-tryptophyl-L-prolyl-L-prolyl-L-valyl-L-alaninamide” has an isolated mass ([1]; scale 0.032 mmol) of 8.3 mg and an isolated yield ([1]; scale 0.032 mmol) of 18.0%.
Work on EE-ε-Ahx-ε-Ahx-SSAWWSYWPPVA yielded an isolated mass ([1]; scale 0.076 mmol) of 27 mg and an isolated yield ([1]; scale 0.076 mmol) of 15.0%.
With CC(C)CCC[C@@H](C)[C@H]1CC[C@H]2[C@@H]3CC=C4C[C@@H](NCCCCC(=O)N[C@@H](CCC(=O)O)C(=O)N[C@@H](CCCCNC(=O)c5cc(Cl)c(C(=O)O)c(-c6c7cc(Cl)c(=O)c(Cl)c-7oc7c(Cl)c(O)c(Cl)cc67)c5Cl)C(=O)NCCCCCC(=O)NCCCCCC(=O)N[C@@H](CO)C(=O)N[C@@H](CO)C(=O)N[C@@H](C)C(=O)N[C@@H](Cc5c[nH]c6ccccc56)C(=O)N[C@@H](Cc5c[nH]c6ccccc56)C(=O)N[C@@H](CO)C(=O)N[C@@H](Cc5ccc(O)cc5)C(=O)N[C@@H](Cc5c[nH]c6ccccc56)C(=O)N5CCC[C@H]5C(=O)N5CCC[C@H]5C(=O)N[C@H](C(=O)N[C@@H](C)C(N)=O)C(C)C)CC[C@]4(C)[C@H]3CC[C@]12C [Compound 2, N-(6-{[6-({N-{5-(3β-Cholest-5-en-3-ylammonio)pentanoyl}-5-oxidanidyl-5-oxidanylidene-L-norvalyl-N^6-[4-carboxy-2,5-dichloro-3-(2,4,5,7-tetrachloro-6-hydroxy-3-oxo-3H-xanthen-9-yl)benzoyl]-L-lysyl}amino)hexanoyl]amino}hexanoyl)-L-seryl-L-seryl-L-alanyl-L-tryptophyl-L-tryptophyl-L-seryl-L-tyrosyl-L-tryptophyl-L-prolyl-L-prolyl-L-valyl-L-alaninamide] ({Pentanoyl(5-NH-cholesteryl)}-EK(X1)[Ahx][Ahx]SSAWWSYWPPVA-NH2) the “colocalization of red fluorescent Compound 2 and green fluorescent Compound 3” value [2] was “Essentially complete colocalization of red and green fluorescence in early/recycling endosomes” and the “colocalization with green fluorescent transferrin Alexa Fluor 488 conjugate” value ([2]; compound 5 μM 12 h, then transferrin conjugate 610 nM 5 min) was “Essentially complete colocalization of red and green fluorescence”.
For CC(C)CCC[C@@H](C)[C@H]1CC[C@H]2[C@@H]3CC=C4C[C@@H](NCCCNC(=O)[C@H](CCC(=O)O)NC(=O)[C@H](CCC(=O)O)NC(=O)CCSSCCNC(=O)c5ccc(-c6c7ccc(=O)cc-7oc7cc(O)ccc67)c(C(=O)O)c5)CC[C@]4(C)[C@H]3CC[C@]12C [Compound 3, (11S,14S)-11-(2-Carboxylatoethyl)-1-[3-carboxylato-4-(6-oxido-3-oxo-3H-xanthen-9-yl)phenyl]-14-[({3-(3β-cholest-5-en-3-ylammonio)propyl}amino)carbonyl]-1,9,12-trioxo-5,6-dithia-2,10,13-triazaheptadecan-17-oate], the “colocalization of red fluorescent Compound 2 and green fluorescent Compound 3” value [2] was “Essentially complete colocalization of red and green fluorescence in early/recycling endosomes”, the “colocalization with red fluorescent DiI-LDL (marker of late endosomes and lysosomes)” value ([2]; compound 5 μM 12 h, then DiI-LDL 8 nM 5 min) was “distinct red fluorescence” and the “intracellular colocalization with red fluorescent transferrin (marker of early/recycling endosomes)” value ([2]; compound 5 μM 12 h, then Texas Red transferrin 500 nM 5 min) was “essentially complete intracellular colocalization with red fluorescent transferrin protein”.
In the case of EK-ε-Ahx-ε-Ahx-SSAWWSYWPPVA, the isolated mass [3] is reported as 7.2 mg and the isolated yield ([3]; scale 0.038 mmol) is reported as 6.6%.
